The text below walks through data of publication doi:10.1101/2023.06.15.544950.

Protein sequences, listed by entry. Tags and fused reporters are not part of them. Residues count along the entry.
UniProt P97798, residues 37-1492: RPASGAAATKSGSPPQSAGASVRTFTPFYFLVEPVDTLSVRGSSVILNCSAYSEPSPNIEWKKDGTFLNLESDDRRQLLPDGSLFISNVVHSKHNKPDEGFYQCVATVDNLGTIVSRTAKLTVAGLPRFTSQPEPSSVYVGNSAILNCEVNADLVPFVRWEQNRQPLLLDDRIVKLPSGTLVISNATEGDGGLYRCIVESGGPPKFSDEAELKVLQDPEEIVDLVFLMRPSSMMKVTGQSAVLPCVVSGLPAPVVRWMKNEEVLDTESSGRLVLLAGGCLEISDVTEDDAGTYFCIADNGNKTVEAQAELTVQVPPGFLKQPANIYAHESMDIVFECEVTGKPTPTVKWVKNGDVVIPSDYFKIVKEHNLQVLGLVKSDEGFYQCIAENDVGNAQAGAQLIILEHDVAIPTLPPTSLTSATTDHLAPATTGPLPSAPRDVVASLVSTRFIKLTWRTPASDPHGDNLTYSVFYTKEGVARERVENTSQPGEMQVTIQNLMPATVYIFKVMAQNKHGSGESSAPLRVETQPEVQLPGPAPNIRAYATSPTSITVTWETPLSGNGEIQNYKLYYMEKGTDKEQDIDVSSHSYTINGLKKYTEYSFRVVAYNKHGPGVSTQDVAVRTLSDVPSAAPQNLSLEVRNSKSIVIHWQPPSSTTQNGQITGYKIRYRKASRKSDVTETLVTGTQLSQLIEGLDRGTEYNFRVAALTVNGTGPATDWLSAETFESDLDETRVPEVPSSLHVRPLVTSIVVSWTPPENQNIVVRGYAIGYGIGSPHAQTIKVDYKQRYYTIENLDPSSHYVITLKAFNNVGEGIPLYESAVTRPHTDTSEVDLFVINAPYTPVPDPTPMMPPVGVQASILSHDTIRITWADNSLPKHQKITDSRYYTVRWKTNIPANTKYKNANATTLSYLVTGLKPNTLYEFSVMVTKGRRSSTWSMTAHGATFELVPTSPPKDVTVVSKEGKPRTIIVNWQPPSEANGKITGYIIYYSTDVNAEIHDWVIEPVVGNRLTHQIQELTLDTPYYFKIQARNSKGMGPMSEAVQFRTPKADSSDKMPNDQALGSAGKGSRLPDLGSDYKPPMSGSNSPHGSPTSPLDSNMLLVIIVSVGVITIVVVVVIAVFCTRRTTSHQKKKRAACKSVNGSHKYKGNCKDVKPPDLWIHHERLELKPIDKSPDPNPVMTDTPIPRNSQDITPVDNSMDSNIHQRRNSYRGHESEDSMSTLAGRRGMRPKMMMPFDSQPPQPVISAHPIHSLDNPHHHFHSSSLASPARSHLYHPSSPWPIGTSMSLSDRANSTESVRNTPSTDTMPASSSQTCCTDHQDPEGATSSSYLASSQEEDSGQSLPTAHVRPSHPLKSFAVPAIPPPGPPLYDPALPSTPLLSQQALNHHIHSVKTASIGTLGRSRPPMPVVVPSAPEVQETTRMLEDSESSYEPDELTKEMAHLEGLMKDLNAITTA
UniProt P70211, residues 26-1447: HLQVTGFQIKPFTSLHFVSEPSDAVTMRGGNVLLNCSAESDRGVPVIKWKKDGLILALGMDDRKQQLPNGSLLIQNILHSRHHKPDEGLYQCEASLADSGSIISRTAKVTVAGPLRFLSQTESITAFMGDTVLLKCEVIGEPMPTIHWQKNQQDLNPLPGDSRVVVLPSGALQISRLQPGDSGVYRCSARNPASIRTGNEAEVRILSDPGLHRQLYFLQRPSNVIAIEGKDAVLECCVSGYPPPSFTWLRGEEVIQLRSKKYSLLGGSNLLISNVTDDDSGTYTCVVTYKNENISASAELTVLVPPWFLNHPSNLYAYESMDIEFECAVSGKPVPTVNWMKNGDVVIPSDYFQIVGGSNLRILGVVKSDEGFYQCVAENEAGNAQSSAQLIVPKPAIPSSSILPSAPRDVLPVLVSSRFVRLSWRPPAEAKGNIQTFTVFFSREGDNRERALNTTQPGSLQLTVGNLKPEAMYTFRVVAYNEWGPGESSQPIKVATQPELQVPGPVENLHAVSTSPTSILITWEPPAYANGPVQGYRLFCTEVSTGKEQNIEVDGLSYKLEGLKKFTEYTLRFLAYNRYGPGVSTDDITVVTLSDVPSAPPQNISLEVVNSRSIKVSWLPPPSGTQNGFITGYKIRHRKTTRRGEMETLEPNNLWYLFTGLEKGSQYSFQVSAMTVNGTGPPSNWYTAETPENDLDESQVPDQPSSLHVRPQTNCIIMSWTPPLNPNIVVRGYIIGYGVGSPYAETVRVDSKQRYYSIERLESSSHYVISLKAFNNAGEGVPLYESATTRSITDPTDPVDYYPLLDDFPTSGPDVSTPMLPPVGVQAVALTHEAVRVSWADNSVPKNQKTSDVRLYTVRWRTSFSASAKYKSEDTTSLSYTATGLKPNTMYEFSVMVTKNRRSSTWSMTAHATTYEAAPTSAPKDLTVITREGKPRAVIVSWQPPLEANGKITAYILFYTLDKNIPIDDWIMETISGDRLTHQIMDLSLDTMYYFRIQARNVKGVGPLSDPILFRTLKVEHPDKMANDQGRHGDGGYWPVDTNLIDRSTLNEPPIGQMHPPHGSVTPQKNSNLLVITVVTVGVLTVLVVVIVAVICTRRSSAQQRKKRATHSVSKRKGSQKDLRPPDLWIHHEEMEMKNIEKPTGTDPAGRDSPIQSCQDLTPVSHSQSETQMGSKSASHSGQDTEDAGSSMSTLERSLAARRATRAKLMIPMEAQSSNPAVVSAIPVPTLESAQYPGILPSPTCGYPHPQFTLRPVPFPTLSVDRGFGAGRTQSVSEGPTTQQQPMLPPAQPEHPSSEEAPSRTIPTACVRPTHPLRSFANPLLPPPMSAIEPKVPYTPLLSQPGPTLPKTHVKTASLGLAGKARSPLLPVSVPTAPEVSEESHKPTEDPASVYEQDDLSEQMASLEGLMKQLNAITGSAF

Assay [1] concerns the target T1, fusion of WFIKKN2 and Fc (secreted protein microarray) (UniProt Q8TEU8).
T1 sequence: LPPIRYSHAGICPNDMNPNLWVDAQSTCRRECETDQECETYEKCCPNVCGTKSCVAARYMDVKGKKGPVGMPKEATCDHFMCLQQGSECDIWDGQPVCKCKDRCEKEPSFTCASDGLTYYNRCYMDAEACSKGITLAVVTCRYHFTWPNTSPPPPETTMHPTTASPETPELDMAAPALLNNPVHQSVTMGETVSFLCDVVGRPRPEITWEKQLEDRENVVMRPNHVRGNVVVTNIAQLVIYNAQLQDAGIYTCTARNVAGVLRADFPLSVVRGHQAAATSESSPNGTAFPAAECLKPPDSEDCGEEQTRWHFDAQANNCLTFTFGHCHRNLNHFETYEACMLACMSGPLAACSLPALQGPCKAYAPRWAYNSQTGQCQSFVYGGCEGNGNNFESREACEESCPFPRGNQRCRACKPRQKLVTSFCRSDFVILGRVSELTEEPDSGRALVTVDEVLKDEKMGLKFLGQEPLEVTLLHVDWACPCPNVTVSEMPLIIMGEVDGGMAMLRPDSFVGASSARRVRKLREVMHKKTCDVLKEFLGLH
Nature of the assay: peptide or protein array.

Assay [2] addresses T2, mWFIKKN2 (biotinylated, SPR ligand) (mouse) (UniProt Q7TQN3).
T2 sequence (chain, N-terminally biotinylated using Sulfo-NHS-SS-Biotin): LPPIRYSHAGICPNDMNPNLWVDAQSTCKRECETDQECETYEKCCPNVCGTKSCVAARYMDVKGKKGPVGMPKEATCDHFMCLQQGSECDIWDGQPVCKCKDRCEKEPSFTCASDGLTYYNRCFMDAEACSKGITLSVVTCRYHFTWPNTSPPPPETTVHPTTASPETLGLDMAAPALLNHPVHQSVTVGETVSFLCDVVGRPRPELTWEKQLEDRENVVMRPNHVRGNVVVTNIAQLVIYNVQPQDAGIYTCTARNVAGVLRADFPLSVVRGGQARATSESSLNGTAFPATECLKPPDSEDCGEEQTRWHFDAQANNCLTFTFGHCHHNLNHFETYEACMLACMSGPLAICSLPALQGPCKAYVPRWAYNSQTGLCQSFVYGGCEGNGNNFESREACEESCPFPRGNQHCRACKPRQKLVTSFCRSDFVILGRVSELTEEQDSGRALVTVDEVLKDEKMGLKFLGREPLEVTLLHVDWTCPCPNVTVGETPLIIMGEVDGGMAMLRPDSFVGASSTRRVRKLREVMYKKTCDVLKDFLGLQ
Nature of the assay: SPR.

Assay [3] concerns the target Neogenin (Neo1) expressed on COS-7 cells (UniProt P97798). Nature of the assay: AP fusion protein binding assay on cells.
The target of assay [4] is T3, Punc expressed on COS-7 cells (UniProt Q8BQC3).
T3 sequence: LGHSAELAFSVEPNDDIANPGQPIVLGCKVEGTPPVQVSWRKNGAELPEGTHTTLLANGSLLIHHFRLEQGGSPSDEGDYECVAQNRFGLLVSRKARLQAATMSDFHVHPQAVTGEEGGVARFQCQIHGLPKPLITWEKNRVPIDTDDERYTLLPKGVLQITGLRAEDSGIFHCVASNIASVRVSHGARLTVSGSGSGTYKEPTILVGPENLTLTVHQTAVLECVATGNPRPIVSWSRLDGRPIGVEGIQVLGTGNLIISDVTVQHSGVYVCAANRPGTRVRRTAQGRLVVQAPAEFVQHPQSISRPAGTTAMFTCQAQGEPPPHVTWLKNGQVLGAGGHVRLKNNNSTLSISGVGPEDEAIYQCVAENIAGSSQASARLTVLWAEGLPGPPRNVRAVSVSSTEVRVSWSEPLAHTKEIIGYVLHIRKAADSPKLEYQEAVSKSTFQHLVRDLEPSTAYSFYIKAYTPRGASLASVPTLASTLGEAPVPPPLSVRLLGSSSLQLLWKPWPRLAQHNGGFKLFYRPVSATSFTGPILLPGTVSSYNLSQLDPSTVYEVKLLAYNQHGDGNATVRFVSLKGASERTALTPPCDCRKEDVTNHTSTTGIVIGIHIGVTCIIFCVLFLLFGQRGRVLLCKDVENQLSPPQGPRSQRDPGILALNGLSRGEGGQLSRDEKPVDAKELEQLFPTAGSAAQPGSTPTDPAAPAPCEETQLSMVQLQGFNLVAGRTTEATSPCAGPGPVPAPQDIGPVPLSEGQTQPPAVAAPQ
Nature of the assay: AP fusion protein binding assay on cells.

For assay [5], the target named is T4, Nope expressed on COS-7 cells (UniProt Q9EQS9).
T4 sequence: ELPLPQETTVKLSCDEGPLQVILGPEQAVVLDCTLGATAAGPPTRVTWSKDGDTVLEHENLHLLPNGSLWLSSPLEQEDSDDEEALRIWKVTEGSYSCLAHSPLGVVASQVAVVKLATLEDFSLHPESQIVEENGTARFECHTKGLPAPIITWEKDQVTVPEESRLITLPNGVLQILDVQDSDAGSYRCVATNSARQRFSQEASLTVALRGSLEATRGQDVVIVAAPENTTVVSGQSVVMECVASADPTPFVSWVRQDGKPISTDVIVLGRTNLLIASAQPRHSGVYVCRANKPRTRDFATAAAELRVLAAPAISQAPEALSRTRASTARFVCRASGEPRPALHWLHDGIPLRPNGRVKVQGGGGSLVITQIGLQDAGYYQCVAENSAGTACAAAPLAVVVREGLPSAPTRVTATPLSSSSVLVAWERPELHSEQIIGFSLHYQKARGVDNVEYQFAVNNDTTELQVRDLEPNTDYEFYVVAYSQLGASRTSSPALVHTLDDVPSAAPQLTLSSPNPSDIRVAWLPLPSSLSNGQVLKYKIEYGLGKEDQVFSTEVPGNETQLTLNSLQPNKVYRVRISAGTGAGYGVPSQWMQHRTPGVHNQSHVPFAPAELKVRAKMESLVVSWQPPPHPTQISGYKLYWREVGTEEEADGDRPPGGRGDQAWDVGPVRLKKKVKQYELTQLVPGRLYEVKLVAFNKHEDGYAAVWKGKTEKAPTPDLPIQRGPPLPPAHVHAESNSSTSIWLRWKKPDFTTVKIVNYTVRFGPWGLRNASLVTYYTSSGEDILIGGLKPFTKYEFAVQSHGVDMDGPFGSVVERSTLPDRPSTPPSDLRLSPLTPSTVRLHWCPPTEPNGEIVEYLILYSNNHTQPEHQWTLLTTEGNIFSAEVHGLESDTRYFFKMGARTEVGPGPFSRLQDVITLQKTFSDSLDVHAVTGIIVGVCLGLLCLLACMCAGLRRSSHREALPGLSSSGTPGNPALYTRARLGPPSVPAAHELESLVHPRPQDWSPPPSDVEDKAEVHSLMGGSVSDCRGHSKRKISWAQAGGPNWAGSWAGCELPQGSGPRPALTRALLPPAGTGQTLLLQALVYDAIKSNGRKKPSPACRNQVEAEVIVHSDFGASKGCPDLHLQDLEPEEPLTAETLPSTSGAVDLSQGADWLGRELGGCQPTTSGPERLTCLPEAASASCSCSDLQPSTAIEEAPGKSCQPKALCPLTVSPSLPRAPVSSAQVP
Nature of the assay: AP fusion protein binding assay on cells.

Assay [6] deals with DCC expressed on COS-7 cells (UniProt P70211). Nature of the assay: AP fusion protein binding assay on cells.

Results are given in words; binding and its absence hold for the method and conditions named. Some results given as binding are weak or reduced against the parent protein; the word gives no strength. For part of these data: Where a sequence is shown, tags or fusion partners need not be part of it.

B1: fusion of mNope ECD (G22-H953) to human Fc (Fc fusion, UniProt Q9EQS9-1 22-953)
chain: GELPLPQETTVKLSCDEGPLQVILGPEQAVVLDCTLGATAAGPPTRVTWSKDGDTVLEHENLHLLPNGSLWLSSPLEQEDSDDEEALRIWKVTEGSYSCLAHSPLGVVASQVAVVKLATLEDFSLHPESQIVEENGTARFECHTKGLPAPIITWEKDQVTVPEESRLITLPNGVLQILDVQDSDAGSYRCVATNSARQRFSQEASLTVALRGSLEATRGQDVVIVAAPENTTVVSGQSVVMECVASADPTPFVSWVRQDGKPISTDVIVLGRTNLLIASAQPRHSGVYVCRANKPRTRDFATAAAELRVLAAPAISQAPEALSRTRASTARFVCRASGEPRPALHWLHDGIPLRPNGRVKVQGGGGSLVITQIGLQDAGYYQCVAENSAGTACAAAPLAVVVREGLPSAPTRVTATPLSSSSVLVAWERPELHSEQIIGFSLHYQKARGVDNVEYQFAVNNDTTELQVRDLEPNTDYEFYVVAYSQLGASRTSSPALVHTLDDVPSAAPQLTLSSPNPSDIRVAWLPLPSSLSNGQVLKYKIEYGLGKEDQVFSTEVPGNETQLTLNSLQPNKVYRVRISAGTGAGYGVPSQWMQHRTPGVHNQSHVPFAPAELKVRAKMESLVVSWQPPPHPTQISGYKLYWREVGTEEEADGDRPPGGRGDQAWDVGPVRLKKKVKQYELTQLVPGRLYEVKLVAFNKHEDGYAAVWKGKTEKAPTPDLPIQRGPPLPPAHVHAESNSSTSIWLRWKKPDFTTVKIVNYTVRFGPWGLRNASLVTYYTSSGEDILIGGLKPFTKYEFAVQSHGVDMDGPFGSVVERSTLPDRPSTPPSDLRLSPLTPSTVRLHWCPPTEPNGEIVEYLILYSNNHTQPEHQWTLLTTEGNIFSAEVHGLESDTRYFFKMGARTEVGPGPFSRLQDVITLQKTFSDSLDVH
For the molecule B1, the binding entry in assay [1] is on record as “binds”.

B2: mNope ECD (SPR analyte) (domain or fragment, UniProt Q9EQS9-1 23-956)
chain: ELPLPQETTVKLSCDEGPLQVILGPEQAVVLDCTLGATAAGPPTRVTWSKDGDTVLEHENLHLLPNGSLWLSSPLEQEDSDDEEALRIWKVTEGSYSCLAHSPLGVVASQVAVVKLATLEDFSLHPESQIVEENGTARFECHTKGLPAPIITWEKDQVTVPEESRLITLPNGVLQILDVQDSDAGSYRCVATNSARQRFSQEASLTVALRGSLEATRGQDVVIVAAPENTTVVSGQSVVMECVASADPTPFVSWVRQDGKPISTDVIVLGRTNLLIASAQPRHSGVYVCRANKPRTRDFATAAAELRVLAAPAISQAPEALSRTRASTARFVCRASGEPRPALHWLHDGIPLRPNGRVKVQGGGGSLVITQIGLQDAGYYQCVAENSAGTACAAAPLAVVVREGLPSAPTRVTATPLSSSSVLVAWERPELHSEQIIGFSLHYQKARGVDNVEYQFAVNNDTTELQVRDLEPNTDYEFYVVAYSQLGASRTSSPALVHTLDDVPSAAPQLTLSSPNPSDIRVAWLPLPSSLSNGQVLKYKIEYGLGKEDQVFSTEVPGNETQLTLNSLQPNKVYRVRISAGTGAGYGVPSQWMQHRTPGVHNQSHVPFAPAELKVRAKMESLVVSWQPPPHPTQISGYKLYWREVGTEEEADGDRPPGGRGDQAWDVGPVRLKKKVKQYELTQLVPGRLYEVKLVAFNKHEDGYAAVWKGKTEKAPTPDLPIQRGPPLPPAHVHAESNSSTSIWLRWKKPDFTTVKIVNYTVRFGPWGLRNASLVTYYTSSGEDILIGGLKPFTKYEFAVQSHGVDMDGPFGSVVERSTLPDRPSTPPSDLRLSPLTPSTVRLHWCPPTEPNGEIVEYLILYSNNHTQPEHQWTLLTTEGNIFSAEVHGLESDTRYFFKMGARTEVGPGPFSRLQDVITLQKTFSDSLDVHAVT
Consider B2, for which, in assay [2], the binding result is reported as “binds”.

B3: WFIKKN2-AP (ligand, UniProt Q7TQN3 30-571)
chain: LPPIRYSHAGICPNDMNPNLWVDAQSTCKRECETDQECETYEKCCPNVCGTKSCVAARYMDVKGKKGPVGMPKEATCDHFMCLQQGSECDIWDGQPVCKCKDRCEKEPSFTCASDGLTYYNRCFMDAEACSKGITLSVVTCRYHFTWPNTSPPPPETTVHPTTASPETLGLDMAAPALLNHPVHQSVTVGETVSFLCDVVGRPRPELTWEKQLEDRENVVMRPNHVRGNVVVTNIAQLVIYNVQPQDAGIYTCTARNVAGVLRADFPLSVVRGGQARATSESSLNGTAFPATECLKPPDSEDCGEEQTRWHFDAQANNCLTFTFGHCHHNLNHFETYEACMLACMSGPLAICSLPALQGPCKAYVPRWAYNSQTGLCQSFVYGGCEGNGNNFESREACEESCPFPRGNQHCRACKPRQKLVTSFCRSDFVILGRVSELTEEQDSGRALVTVDEVLKDEKMGLKFLGREPLEVTLLHVDWTCPCPNVTVGETPLIIMGEVDGGMAMLRPDSFVGASSTRRVRKLREVMYKKTCDVLKDFLGLQ
B3: the binding entry in assay [3] was “no binding”; in assay [4] it was “binds”; in assay [5], “binds”; in assay [6], “no binding”.
